No constants are given. Whether binding was seen depends on the method and setting. In cells and extracts the contact can be indirect. Some entries that bind do so weakly or less than the wild type. For part of these data: Where a sequence is shown, tags or fusion partners need not be part of it.
Experiments:
[1] = target: T1, HA-tagged Lamin C (HA-LamC) (Drosophila) (UniProt Q03427); test: co-IP; lysates of S2 cells expressing HA-tagged wild-type or chimeric lamins, anti-HA magnetic beads, immunoblot with anti-PIG-B (endogenous PIG-B) and anti-HA
T1 sequence: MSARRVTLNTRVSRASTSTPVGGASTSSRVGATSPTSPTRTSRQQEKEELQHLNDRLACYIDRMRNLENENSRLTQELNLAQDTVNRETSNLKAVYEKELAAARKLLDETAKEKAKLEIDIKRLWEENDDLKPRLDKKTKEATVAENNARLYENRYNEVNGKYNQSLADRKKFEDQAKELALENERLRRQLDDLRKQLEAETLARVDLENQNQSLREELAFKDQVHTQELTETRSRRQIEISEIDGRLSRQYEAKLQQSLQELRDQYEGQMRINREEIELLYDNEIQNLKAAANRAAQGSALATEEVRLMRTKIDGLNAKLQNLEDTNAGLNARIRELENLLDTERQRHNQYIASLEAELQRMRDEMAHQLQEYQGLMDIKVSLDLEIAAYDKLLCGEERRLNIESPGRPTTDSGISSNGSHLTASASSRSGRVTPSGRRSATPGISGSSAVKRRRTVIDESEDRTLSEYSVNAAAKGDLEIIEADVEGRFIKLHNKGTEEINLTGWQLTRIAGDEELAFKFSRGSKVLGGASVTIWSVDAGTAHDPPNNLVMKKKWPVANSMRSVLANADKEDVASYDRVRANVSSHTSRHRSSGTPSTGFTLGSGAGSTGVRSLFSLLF

[2] = target: T2, HA-tagged Lamin Dm0 (HA-LamDm) (Drosophila) (UniProt P08928); test: as above
T2 sequence: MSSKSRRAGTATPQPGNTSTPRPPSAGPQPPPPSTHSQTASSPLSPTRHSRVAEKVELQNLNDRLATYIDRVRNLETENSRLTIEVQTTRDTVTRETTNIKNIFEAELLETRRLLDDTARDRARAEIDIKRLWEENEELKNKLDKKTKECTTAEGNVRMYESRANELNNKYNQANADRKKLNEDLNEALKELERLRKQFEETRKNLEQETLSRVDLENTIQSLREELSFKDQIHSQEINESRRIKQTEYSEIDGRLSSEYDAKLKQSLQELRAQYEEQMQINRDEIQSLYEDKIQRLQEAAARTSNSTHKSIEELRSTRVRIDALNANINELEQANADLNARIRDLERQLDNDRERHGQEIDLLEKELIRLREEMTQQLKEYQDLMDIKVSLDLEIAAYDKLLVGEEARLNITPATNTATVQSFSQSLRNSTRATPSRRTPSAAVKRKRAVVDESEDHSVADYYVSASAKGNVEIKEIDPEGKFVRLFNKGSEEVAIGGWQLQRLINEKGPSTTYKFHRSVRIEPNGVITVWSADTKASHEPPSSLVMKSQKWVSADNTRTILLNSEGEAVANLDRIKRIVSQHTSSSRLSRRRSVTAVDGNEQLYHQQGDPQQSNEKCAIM

[3] = target: T3, Lamin Dm0 (D. melanogaster (endogenous in S2)) (UniProt P08928); test: co-IP; endogenous proteins in S2 cell lysates (50 mM Tris-HCl pH 8.0, 150 mM NaCl, 1% Triton X-100), anti-PIG-B or anti-Lamin Dm0 (ADL67.10) antibody and Protein G Sepharose; normal mouse IgG as control
T3 sequence: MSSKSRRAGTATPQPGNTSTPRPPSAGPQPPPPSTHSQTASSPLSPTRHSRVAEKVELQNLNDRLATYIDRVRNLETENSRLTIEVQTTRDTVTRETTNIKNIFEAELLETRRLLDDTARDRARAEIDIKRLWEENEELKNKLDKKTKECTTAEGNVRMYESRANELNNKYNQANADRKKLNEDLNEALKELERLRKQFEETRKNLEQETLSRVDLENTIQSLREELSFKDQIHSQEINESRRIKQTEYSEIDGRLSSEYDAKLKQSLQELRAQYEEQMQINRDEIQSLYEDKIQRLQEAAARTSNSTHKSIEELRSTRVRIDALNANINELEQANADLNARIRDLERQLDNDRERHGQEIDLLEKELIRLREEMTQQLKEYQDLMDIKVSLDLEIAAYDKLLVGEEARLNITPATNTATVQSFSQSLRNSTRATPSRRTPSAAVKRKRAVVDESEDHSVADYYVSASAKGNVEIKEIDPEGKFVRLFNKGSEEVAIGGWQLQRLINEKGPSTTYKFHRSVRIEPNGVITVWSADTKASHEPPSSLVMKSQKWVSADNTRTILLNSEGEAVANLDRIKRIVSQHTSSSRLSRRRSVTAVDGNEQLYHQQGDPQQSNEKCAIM

- binding [1]: no binding
- binding [2]: binds
- binding [3]: binds
B1: PIG-B (endogenous) (enzyme, UniProt Q9VZM5 1-561)
chain: MKLIYVFLLILAVRLASVFVVQTYYVPDEYWQSLEVAHKLTFGYGYLTWEWVQGIRSYVYPLLIAGLYKILALLQLDSAHLLVVLPRIVQALLSAYSDYRFFVWTGKRKWALFLILVPWFWFYTGSRTLANTLEASLTTIALSYFPWYGESTAYLWPAAICCFLRPTAAVIWLPLSLYHLRRSRQNVLELILKRFVLIGLLVAGLGIAIDTYWHGQLIVTPYEFLKYNIFNNIGSFYGSHPWHWYFSVGLPTVLGINTLPFIFGVMETVKKSEKYPVSKQLLITIFLTLVVLSAVEHKEFRFVSPLLPLCLYVITDALSRWSIRASSTMLWTTALVILVGNVMPAWYLSTVHQKGPIELMPKLREIAREYRDEREHQANILFLMPCHSTPYYSHIHQNVTMRFLTCEPNLEKKEQYKDEADRFFEDPVHWINSHIPMHPLTALPTHVVLFDPLAENISVFLRNYRLLHRIEHAEVTRLEGSQALVDQWSEALGAQSPNLASLLQNRQSRTGRSILVYQRLKKGEENAFNRGPDSGQHEPDVHDHPPLEDLVLANENENLFN

— PMC7104860
